Experimental data from patent US11517540B2, “Restoring physiology in iron-deficient organisms using small molecules” (The Board of Trustees of the University of Illinois, priority 2015, dated 2022).
For at least one compound, name, drawing or mass did not settle the structure.

Test system: hino-rescued yeast
Experiment: Sensitivity of hinokitiol-rescued yeast to chemical inhibitors
Assay type: cell-based, S. cerevisiae
Conditions: ebselen: Pma1; bafilomycin: V-ATPase; caspofungin: off-pathway cell wall biosynthesis

O=c1c2ccccc2[se]n1-c1ccccc1 [ebselen]
sensitivity of hino-rescued yeast to chemical inhibition: exceptionally sensitive
